Binding data for three molecules are collected here from article PMC11385326.

Protein sequences, listed by entry. Tags and fused reporters are not part of them.
UniProt Q8TCG2: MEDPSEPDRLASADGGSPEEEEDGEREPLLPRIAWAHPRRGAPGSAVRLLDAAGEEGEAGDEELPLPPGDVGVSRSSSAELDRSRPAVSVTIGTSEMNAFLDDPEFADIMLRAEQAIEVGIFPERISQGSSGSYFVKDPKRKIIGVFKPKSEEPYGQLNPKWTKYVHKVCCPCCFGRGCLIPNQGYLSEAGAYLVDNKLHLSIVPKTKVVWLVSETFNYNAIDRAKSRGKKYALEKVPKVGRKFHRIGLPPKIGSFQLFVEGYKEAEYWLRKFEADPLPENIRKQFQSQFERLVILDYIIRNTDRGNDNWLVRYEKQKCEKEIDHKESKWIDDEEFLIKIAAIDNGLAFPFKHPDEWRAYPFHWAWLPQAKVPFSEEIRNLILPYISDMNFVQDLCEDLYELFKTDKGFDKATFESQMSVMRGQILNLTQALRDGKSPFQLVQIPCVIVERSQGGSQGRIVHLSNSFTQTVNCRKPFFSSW

Assay in all cases: proximity labelling; TurboID knocked in at the µ subunits of AP-1 to AP-4 in living HeLa cells, 50 µM biotin for 24 h; RIPA lysate (30 min, 24 G needle), streptavidin magnetic beads, label-free quantitative LC-MS; relative intensities compared between the AP datasets (log2 fold change >1 or <-1, P<0.05), control biotin-treated WT HeLa; four replicates
Experiment [1] deals with T1, AP1µA^EN–TurboID–V5 (human (endogenous in HeLa)) (UniProt Q9BXS5).
T1 sequence: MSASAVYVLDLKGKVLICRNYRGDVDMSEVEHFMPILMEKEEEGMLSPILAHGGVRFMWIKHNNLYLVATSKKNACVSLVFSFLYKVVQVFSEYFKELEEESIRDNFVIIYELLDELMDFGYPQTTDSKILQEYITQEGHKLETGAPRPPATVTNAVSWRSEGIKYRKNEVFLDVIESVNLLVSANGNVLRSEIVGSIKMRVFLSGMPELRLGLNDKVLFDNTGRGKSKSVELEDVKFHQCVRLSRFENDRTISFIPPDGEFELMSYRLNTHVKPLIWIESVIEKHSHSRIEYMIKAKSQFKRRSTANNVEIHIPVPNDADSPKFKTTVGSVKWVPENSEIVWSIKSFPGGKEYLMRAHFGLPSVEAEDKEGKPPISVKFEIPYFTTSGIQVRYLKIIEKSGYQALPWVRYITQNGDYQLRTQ

Experiment [2] has as its target T2, AP4µ^EN–TurboID–V5 (human (endogenous in HeLa)), O00189.
T2 chain: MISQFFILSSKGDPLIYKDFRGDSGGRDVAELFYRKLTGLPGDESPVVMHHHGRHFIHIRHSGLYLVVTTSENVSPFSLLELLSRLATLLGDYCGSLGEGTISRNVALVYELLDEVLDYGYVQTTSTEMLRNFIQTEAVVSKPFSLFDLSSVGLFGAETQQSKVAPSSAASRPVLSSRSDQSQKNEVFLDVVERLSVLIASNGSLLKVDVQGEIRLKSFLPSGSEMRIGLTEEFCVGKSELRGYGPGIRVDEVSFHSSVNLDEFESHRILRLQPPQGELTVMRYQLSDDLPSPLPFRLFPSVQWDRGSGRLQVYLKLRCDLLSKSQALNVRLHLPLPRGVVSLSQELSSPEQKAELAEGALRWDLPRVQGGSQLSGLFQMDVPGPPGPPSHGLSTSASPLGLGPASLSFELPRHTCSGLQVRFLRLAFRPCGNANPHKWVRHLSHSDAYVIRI
To be noted: remark: other sources report otherwise.

Experiment [3] has as its target T3, AP4µ^EN–TurboID–V5 (human (endogenous in HeLa)) (UniProt O00189).
T3 sequence: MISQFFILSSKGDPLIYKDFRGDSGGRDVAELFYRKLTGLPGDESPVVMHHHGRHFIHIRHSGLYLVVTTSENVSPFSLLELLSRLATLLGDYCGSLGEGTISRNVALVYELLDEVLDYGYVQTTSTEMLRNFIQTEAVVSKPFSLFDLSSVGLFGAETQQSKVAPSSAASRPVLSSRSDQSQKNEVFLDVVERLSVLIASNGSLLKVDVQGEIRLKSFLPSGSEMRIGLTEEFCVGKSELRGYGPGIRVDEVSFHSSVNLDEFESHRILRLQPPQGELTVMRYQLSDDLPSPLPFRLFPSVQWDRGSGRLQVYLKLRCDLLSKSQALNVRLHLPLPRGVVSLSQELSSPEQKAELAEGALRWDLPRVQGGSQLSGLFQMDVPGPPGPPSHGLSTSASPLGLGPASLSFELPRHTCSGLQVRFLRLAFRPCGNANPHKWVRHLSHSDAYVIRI

These are yes or no findings as the source states them, for the method shown. In cells and extracts the contact can be indirect. Here binding means that the protein was enriched with, or labelled near, the bait; the list need not be complete. Sequences can lack the tags named with a protein.

With “PI4-kinase PI4K2B (from UniProt Q8TCG2 1-481)”, the binding entry in experiment [1] is reported as “binds”.

B1: FAM160A1, Q05DH4 1-1040 (protein)
chain: MMSSVSTESKLQQAVSLQGVDPETCMIVFKNHWAQVVKILEKHDPLKNTQAKYGSIPPDEASAVQNYVEHMLFLLIEEQAKDAAMGPILEFVVSENIMEKLFLWSLRREFTDETKIEQLKMYEMLVTQSHQPLLHHKPILKPLMMLLSSCSGTTTPTVEEKLVVLLNQLCSILAKDPSILELFFHTSEDQGAANFLIFSLLIPFIHREGSVGQQARDALLFIMSLSAENTMVAHHIVENTYFCPVLATGLSGLYSSLPTKLEEKGEEWHCLLKDDWLLLPSLVQFMNSLEFCNAVIQVAHPLIRNQLVNYIYNGFLVPVLAPALHKVTVEEVMTTTAYLDLFLRSISEPALLEIFLRFILLHQHENVHILDTLTSRINTPFRLCVVSLALFRTLIGLHCEDVMLQLVLRYLIPCNHMMLSQRWAVKERDCYSVSAAKLLALTPVCCSSGITLTLGNQERDYILWSKCMHDTSGPVERPFPEAFSESACIVEYGKALDISYLQYLWEAHTNILRCMRDCRVWSALYDGDSPDPEMFLQSLTEEGSVSSACPVFGLPQQLPRKTGPQLAPRKDKSQTELEWDDSYDTGISSGADVGSPGPYDDLEVSGPPAPIDPPKHIQEMKKNALLLFKGSYIEESDFQDDVMVYRLCAEKDSEDMKDSQEEAARPPAEAQAEVQSVPINNGPLLSTQPETDSEEEWNRDNSDPFHSEPKEPKQEREPEAAPESNSELASPAPEAEHSSNLTAAHPESEELIAQYDQIIKELDSGAEGLMEQNYPTPDPLLLTKEEEGKEESKGEKEKEGKKELEDEEDDFDSFIAEMPAVETVPSPFVGRDEAAFASRHPVRTQSTPFTGPFISVVLSKLENMLENSLHVNLLLIGIITQLASYPQPLLRSFLLNTNMVFQPSVRSLYQVLASVKNKIEQFASVERDFPGLLIQAQQYLLFRVDMSDMTPAALTKDPIQEASRTGSGKNLLDGPPRVLQPFLTHRTKVAEAPPNLPLPVRNPMLAAALFPEFLKELAALAQEHSILCYKILGDFEDSCC
Consider B1, for which the binding result in experiment [2] is “binds”.

B2: ATG9A (protein, UniProt Q7Z3C6 1-839)
chain: MAQFDTEYQRLEASYSDSPPGEEDLLVHVAEGSKSPWHHIENLDLFFSRVYNLHQKNGFTCMLIGEIFELMQFLFVVAFTTFLVSCVDYDILFANKMVNHSLHPTEPVKVTLPDAFLPAQVCSARIQENGSLITILVIAGVFWIHRLIKFIYNICCYWEIHSFYLHALRIPMSALPYCTWQEVQARIVQTQKEHQICIHKRELTELDIYHRILRFQNYMVALVNKSLLPLRFRLPGLGEAVFFTRGLKYNFELILFWGPGSLFLNEWSLKAEYKRGGQRLELAQRLSNRILWIGIANFLLCPLILIWQILYAFFSYAEVLKREPGALGARCWSLYGRCYLRHFNELEHELQSRLNRGYKPASKYMNCFLSPLLTLLAKNGAFFAGSILAVLIALTIYDEDVLAVEHVLTTVTLLGVTVTVCRSFIPDQHMVFCPEQLLRVILAHIHYMPDHWQGNAHRSQTRDEFAQLFQYKAVFILEELLSPIVTPLILIFCLRPRALEIIDFFRNFTVEVVGVGDTCSFAQMDVRQHGHPQWLSAGQTEASVYQQAEDGKTELSLMHFAITNPGWQPPRESTAFLGFLKEQVQRDGAAASLAQGGLLPENALFTSIQSLQSESEPLSLIANVVAGSSCRGPPLPRDLQGSRHRAEVASALRSFSPLQPGQAPTGRAHSTMTGSGVDARTASSGSSVWEGQLQSLVLSEYASTEMSLHALYMHQLHKQQAQAEPERHVWHRRESDESGESAPDEGGEGARAPQSIPRSASYPCAAPRPGAPETTALHGGFQRRYGGITDPGTVPRVPSHFSRLPLGGWAEDGQSASRHPEPVPEEGSEDELPPQVHKV
As for B2, in experiment [3], the binding result is on record as “binds”.
